From PubChem BioAssay AID1671190 (National Center for Advancing Translational Sciences (NCATS), 2021)
The campaign covered roughly 580,000 compounds. About 6,100 (1.1%) were called active. The shares of active, inactive and inconclusive entries below differ from those in the screen. The call rests on the fitted dose curve; in most records, active means well fitted inhibition curve with a large enough effect; inconclusive means small, poorly fitted or top-dose-only effect, or another doubt; inactive means no such curve, though single readings can be large or run the other way. Where the call is inconclusive, the potency comes from a doubtful curve fit.

By UniProt entry, the sequences of proteins in these tests, tags left out. Where a name states a change or a piece, a line headed by the entry shows the natural chain unless it says otherwise.
UniProt P18054: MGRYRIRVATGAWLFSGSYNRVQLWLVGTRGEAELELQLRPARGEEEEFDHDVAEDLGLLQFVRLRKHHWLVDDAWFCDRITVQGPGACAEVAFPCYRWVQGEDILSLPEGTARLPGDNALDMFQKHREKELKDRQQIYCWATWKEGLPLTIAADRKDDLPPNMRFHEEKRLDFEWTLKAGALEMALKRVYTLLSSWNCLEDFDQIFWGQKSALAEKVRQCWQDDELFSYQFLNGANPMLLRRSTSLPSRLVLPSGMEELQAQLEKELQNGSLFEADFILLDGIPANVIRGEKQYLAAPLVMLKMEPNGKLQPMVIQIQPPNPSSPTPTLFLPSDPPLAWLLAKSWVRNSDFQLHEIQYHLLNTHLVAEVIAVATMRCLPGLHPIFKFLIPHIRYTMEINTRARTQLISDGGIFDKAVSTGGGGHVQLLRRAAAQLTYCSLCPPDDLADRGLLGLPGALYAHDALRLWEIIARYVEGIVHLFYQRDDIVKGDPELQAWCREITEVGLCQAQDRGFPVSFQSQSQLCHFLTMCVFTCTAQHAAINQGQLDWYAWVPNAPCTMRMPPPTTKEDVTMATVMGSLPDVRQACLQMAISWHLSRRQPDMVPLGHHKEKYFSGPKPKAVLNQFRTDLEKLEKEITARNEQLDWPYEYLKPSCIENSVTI

What follows are molecules tested against Polyunsaturated fatty acid lipoxygenase ALOX12 (Homo sapiens) (UniProt P18054) (assay: Primary qHTS assay for inhibitors of human arachidonate 12S-lipoxygenase (ALOX12): Round 2). Conditions: purified 12hLO, xylenol orange hydroperoxide absorbance; series mostly up to 108 µM.
How it was run: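 Purified human 12hLO at 150 nM in 25 mM Hepes, 0.01% Triton X-100, pH 7.0, preincubated 15 min at room temperature with compound. Reaction started with 40 uM arachidonic acid, 30 min at room temperature. Hydroperoxide measured by Fe-xylenol orange, 573/405 nm absorbance ratio.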
Potency means the concentration at half of the fitted maximal effect.

Q: Which Potency does the source give for `COc1ccc2nc(Nc3nc(C)cc(C)n3)nc(C)c2c1` here?
A: inactive

Q: How did the Potency turn out when `COc1ccc(NC(=O)N2CC3(CCN(C(=O)c4ccc(OC)cc4)CC3)C2)cc1` was run?
A: inconclusive: 35.5 µM [inhibitor, single point]

Q: With `Cc1cccc2c1N(CCCOc1ccccc1)C(=O)C2=O` as the molecule, how does the Potency read?
A: inconclusive: 44.7 µM [inhibitor, partial curve, poor fit]

Q: `CCOC(=O)/C(=C\C=C\c1ccccc1)NC(=O)c1ccccc1` was tested. Which Potency did it give?
A: inconclusive: 10 µM [inhibitor, full curve, poor fit]

Q: How did the Potency turn out when `COc1ccc(NC(=O)c2cccnc2Nc2ccccc2)cc1` was run?
A: inconclusive: 44.7 µM [inhibitor, partial curve]

Q: For `COC(=O)c1ccccc1NC(=S)NC(NC(=O)c1ccccc1[N+](=O)[O-])C(Cl)(Cl)Cl` (centres undefined), which Potency is on record?
A: inconclusive: 35.5 µM [inhibitor, partial curve, poor fit]

Q: For `COc1ccc(S(=O)(=O)NC2CC2)cc1NC(=O)c1n[nH]c(=O)c2ccccc12`, which Potency is on record?
A: inconclusive: 89.1 µM [inhibitor, single point]

Q: Which Potency does the source give for `O=C1CCCN1CCCN1C(=O)[C@@H]2C[C@@H](O)CN2C2(CN(C3COC3)C2)C1=O` here?
A: inconclusive: 12.6 µM [inhibitor, full curve, poor fit]

Q: Which Potency does the source give for `COc1cccc(C2=CC(=O)CC(c3ccco3)C2)c1` (centres undefined) here?
A: active: 35.5 µM

Q: Which Potency does the source give for `COc1cc(=O)n2c(c1C(=O)NCc1ccco1)CCN(Cc1cccc(C)n1)CC2` here?
A: inconclusive: 89.1 µM [inhibitor, single point]

Q: For `Cc1nn(Cc2ccc(Cl)cc2)c(C)c1NC(=O)c1c(-c2ccccc2)noc1C`, which Potency is on record?
A: inconclusive: 112 µM [inhibitor, single point]

Q: For `CCCCCn1c(=NC(C)=O)c(C#N)cc2c(=O)n3ccccc3nc21`, which Potency is on record?
A: inconclusive: 100 µM [inhibitor, partial curve, poor fit]

Q: For `Cc1ccc(C)c(-n2c(-c3ccco3)n[nH]c2=S)c1`, which Potency is on record?
A: inactive

Q: Which Potency does the source give for `O=C(COC(=O)C1CCCC1)NCc1ccc(Cl)cc1` here?
A: inconclusive: 126 µM [inhibitor, partial curve, poor fit]

Q: Which Potency does the source give for `CCCCC1CCC(c2nc(C#N)c(N3CCN(CC)CC3)o2)CC1` (centres undefined) here?
A: inactive

Q: `CCOc1ccc(NC(=O)CN(C)C(=O)c2cc(C3CC3)nn2-c2ccccc2)cc1OCC` was tested. Which Potency did it give?
A: inactive

Q: How did the Potency turn out when `CC(=O)c1ccc(NC(=S)NC(=O)/C=C/c2ccco2)cc1` was run?
A: inactive

Q: `O=S(=O)(c1ccccc1)c1nc(-c2ccco2)oc1N1CCCCCC1` was tested. Which Potency did it give?
A: inconclusive: 20 µM [inhibitor, partial curve, poor fit]

Q: With `COc1cccc(NC(=O)c2ccccc2SC)c1` as the molecule, how does the Potency read?
A: inconclusive: 44.7 µM [inhibitor, partial curve, poor fit]

Q: For `COc1cccc(C(=O)NCCN2CCC(n3c(=O)[nH]c4ccccc43)CC2)c1`, which Potency is on record?
A: inconclusive: 100 µM [inhibitor, single point]

Q: `Cc1ccc(C)c(N2CCN(C(=O)c3cc4ccc5cccnc5c4[nH]3)CC2)c1` was tested. Which Potency did it give?
A: inactive

Q: `CCS(=O)(=O)c1ccc(O)c(NC(=O)CC2(CC(=O)O)CCCC2)c1` was tested. Which Potency did it give?
A: inconclusive: 100 µM [inhibitor, single point]

Q: Which Potency does the source give for `CCCc1c(C(=O)Nc2ccc(F)cc2)cnn1-c1ccccc1` here?
A: inconclusive: 89.1 µM [inhibitor, single point]

Q: Which Potency does the source give for `O=C(N/N=C/c1ccc(Br)cc1)c1cccc(N/N=C/c2ccc(Br)cc2)c1` here?
A: inconclusive: 1.41 µM [inhibitor, full curve, poor fit]

Q: How did the Potency turn out when `O=c1oc2ccccc2c(O)c1/C=N/c1ccccn1` was run?
A: inconclusive: 89.1 µM [inhibitor, single point]

Q: For `O=c1[nH]c(=O)n(CCc2ccccc2)c2nccc(-c3ccccc3)c12`, which Potency is on record?
A: inactive

Q: Which Potency does the source give for `O=C(c1ccc(Cl)cc1)[C@@H]1[C@@H]2C(=O)N(c3ccccc3)C(=O)[C@@H]2C2c3ccccc3C=NN21` (some centres undefined) here?
A: inactive

Q: Which Potency does the source give for `Cc1nc2c(c(NCCc3nc(C)c(Cl)s3)n1)CCNCC2` here?
A: inconclusive: 20 µM [inhibitor, full curve]

Q: `O=C1CCC2(C(=O)Nc3ccc(F)cc3F)CCCC=C2N1c1ccccc1` (centres undefined) was tested. Which Potency did it give?
A: inconclusive: 3.98 µM [inhibitor, partial curve, poor fit]

Q: `CCCCCC(=O)N1C[C@H](n2cc(COC(=O)c3ccccc3)nn2)[C@@H](O)C[C@@H]1c1ccc(OC)cc1` was tested. Which Potency did it give?
A: inconclusive: 31.6 µM [inhibitor, partial curve]

Q: For `COc1ccc(OC)c(NC(=O)C2(C)CCN2CCc2ccccc2)c1` (centres undefined), which Potency is on record?
A: inactive

Q: For `O=C(CCc1ccccc1)Nc1cnc2ccccc2c1`, which Potency is on record?
A: inconclusive: 50.1 µM [inhibitor, partial curve, poor fit]

Q: With `CCOc1ccc(NC(=S)N=Nc2c(O)[nH]c3ccccc23)cc1` as the molecule, how does the Potency read?
A: inactive

Q: How did the Potency turn out when `Cc1ccc2nc(/C(C#N)=C/c3cc(I)cc(I)c3OCc3ccccc3)[nH]c2c1` was run?
A: inactive

Q: How did the Potency turn out when `Cc1cc(=O)oc2cc(OCC(=O)Nc3nnc(CC(C)C)s3)ccc12` was run?
A: inactive

Q: `COc1ccccc1CNC(=O)CCn1c(=O)c2ccccc2n(CC(=O)Nc2ccc(C)cc2)c1=O` was tested. Which Potency did it give?
A: inconclusive: 89.1 µM [inhibitor, partial curve, poor fit]

Q: Which Potency does the source give for `O=C(CSc1nnnn1C1CCCCC1)Nc1cccc(NC(=O)c2ccco2)c1` here?
A: inactive

Q: Which Potency does the source give for `COc1cc(SC)ccc1C(=O)N1CCCCCC1` here?
A: inactive

Q: Which Potency does the source give for `O=C(C1CC1)N1CCc2cc(Br)cc(S(=O)(=O)NCc3ccccn3)c21` here?
A: inconclusive: 10 µM [inhibitor, partial curve, poor fit]

Q: For `O=C(CCC1CCCN(S(=O)(=O)c2cccc(F)c2)C1)NC1CCCCC1` (centres undefined), which Potency is on record?
A: inactive

Q: With `COc1cc(C2NC(=O)C(C#N)=C(S)N2c2ccccc2)ccc1OC(C)C` (centres undefined) as the molecule, how does the Potency read?
A: active: 14.1 µM

Q: For `Cc1ccc(CNC(=O)C2(c3ccc(NC(=O)C4CC4)cc3)CCCCC2)o1`, which Potency is on record?
A: inactive

Q: How did the Potency turn out when `O=C(Nc1cccc2ccccc12)O[C@@H]1CO[C@H]2[C@@H]1OC[C@@H]2NC(=S)Nc1cccc2ccccc12` was run?
A: active: 50.1 µM

Q: `CCN(Cc1ccncc1)C(=O)C1CCN(S(=O)(=O)c2cccs2)CC1` was tested. Which Potency did it give?
A: inconclusive: 31.6 µM [inhibitor, partial curve, poor fit]

Q: Which Potency does the source give for `O=C(O)Cc1ccc(CCNS(=O)(=O)c2ccc(Cl)cc2)cc1` here?
A: inactive

Q: `CCOc1ccc(NC(=O)CN(C)C(=O)c2ccc(N3CCOCC3)c([N+](=O)[O-])c2)cc1OCC` was tested. Which Potency did it give?
A: inconclusive: 100 µM [inhibitor, single point]

Q: Which Potency does the source give for `Cc1[nH]ncc1N=Cc1ccc([N+](=O)[O-])cc1` here?
A: inactive

Q: Which Potency does the source give for `Fc1ccccc1NC(=S)NCCc1ccccn1` here?
A: inconclusive: 3.98 µM [inhibitor, full curve, poor fit]

Q: For `CN(C)c1cc(N2CCCC(NC(=O)c3cccnc3)C2)ncn1` (centres undefined), which Potency is on record?
A: inactive

Q: For `O=C(NC1CCCCC1)C(c1ccco1)N(Cc1ccco1)C(=O)c1ccco1` (centres undefined), which Potency is on record?
A: inconclusive: 56.2 µM [inhibitor, partial curve, poor fit]

Q: With `Cc1ccc(NC(=O)c2oc3ccccc3c2NC(=O)C2CCCO2)cc1C` (centres undefined) as the molecule, how does the Potency read?
A: inactive

Q: `Cc1cccc(-c2cc(N3CCCN(C)CC3)n3nccc3n2)c1` was tested. Which Potency did it give?
A: inconclusive: 4.47 µM [inhibitor, full curve]

Q: `COc1cc(/C=C2\SC(=O)N(CC(=O)Nc3cccc(C)c3)C2=O)cc([N+](=O)[O-])c1O` was tested. Which Potency did it give?
A: inconclusive: 89.1 µM [inhibitor, partial curve, poor fit]

Q: Which Potency does the source give for `CCCC(=O)Nc1ccc(NCc2ccc(C)s2)cc1` here?
A: inconclusive: 17.8 µM [inhibitor, single point]

Q: `O=C1CC(N2CCN(c3cccc(C(F)(F)F)c3)CC2)C(=O)N1c1ccc(F)cc1` (centres undefined) was tested. Which Potency did it give?
A: inconclusive: 100 µM [inhibitor, partial curve, poor fit]

Q: For `COc1ccccc1NC(=S)NNC(=S)Nc1ccc(OC(F)F)cc1`, which Potency is on record?
A: inconclusive: 50.1 µM [inhibitor, partial curve]

Q: `Cc1c(CN2C[C@@H](CN(C)CCO)[C@@H](CO)C2)[nH]c2c(Cl)cccc12` was tested. Which Potency did it give?
A: inactive

Q: With `COc1ccc(NC(=O)c2c(-c3ccccc3)oc3ccc(OC)cc23)cc1` as the molecule, how does the Potency read?
A: inactive

Q: For `Cc1nc2sccn2c(=O)c1S(=O)(=O)NCC1CCN(Cc2ccc(Cl)cc2)CC1`, which Potency is on record?
A: inconclusive: 100 µM [inhibitor, single point]

Q: With `CCn1c(=N)c(C(=O)NC)cc2c(=O)n3cccc(C)c3nc21` as the molecule, how does the Potency read?
A: inconclusive: 12.6 µM [inhibitor, partial curve, poor fit]

Q: How did the Potency turn out when `O=C(NCc1cccn1Cc1ccc(F)cc1)Nc1ccc(F)cc1F` was run?
A: inconclusive: 2.51 µM [inhibitor, full curve, poor fit]

Q: `Cc1sc2nc[nH]c(=S)c2c1-c1ccccc1` was tested. Which Potency did it give?
A: active: 31.6 µM

Q: For `CCCn1nnnc1NC(=O)c1ccc(C)cc1Cl`, which Potency is on record?
A: inactive

Q: How did the Potency turn out when `CC(Oc1ccc(Cl)cc1)c1ccnc(N)n1` (centres undefined) was run?
A: inconclusive: 31.6 µM [inhibitor, single point]

Q: With `Cc1nn(S(=O)(=O)c2ccc(C(C)C)cc2)c(C)c1S(=O)(=O)N1CCCCCC1` as the molecule, how does the Potency read?
A: inconclusive: 31.6 µM [inhibitor, partial curve, poor fit]

Q: `C=CCNC(=O)c1onc(CSc2ccc(OC)cc2)c1C(=O)O` was tested. Which Potency did it give?
A: inconclusive: 39.8 µM [inhibitor, partial curve, poor fit]

Q: With `O=C(c1ccc2c(c1)OCO2)N1CCN2C(=O)N(Cc3ccccc3)C(=O)[C@H]2C1` as the molecule, how does the Potency read?
A: inconclusive: 31.6 µM [inhibitor, full curve]

Q: How did the Potency turn out when `O=C(c1cn(-c2ccccc2)nc1-c1ccc(F)cc1)N1CCCCC1` was run?
A: inactive

Q: Which Potency does the source give for `CCS(=O)(=O)N1CCCc2cc(C(=O)Nc3cc(Cl)ccc3C)ccc21` here?
A: inconclusive: 89.1 µM [inhibitor, single point]
